Measurements taken from patent US10429397B2 (priority 2015, dated 2019).

How the values were obtained:
HeLa cells [1] = assay: Kinase-catalyzed biotinylation of live HeLa cells (in cellulo); assay type: cell-based; settings: inhibitor 1 μM 1 hour before APB
Method: After washing the cells, the reaction mixtures were separated by SDS-PAGE and visualized with SYPRO® Ruby total protein stain. […] Detailed experimental procedures and data are supplied as supporting information. […] Cell pellets were lysed in lysis buffer (31 μL) on ice for 30 minutes and then lysates were collected as in section VII.

HeLa cells [2] = assay: DC-assisted in cellulo kinase-catalyzed biotinylation of HeLa cells; assay type: cell-based; settings: inhibitor 1 μM 1 hour before ATP-biotin/DC
Method: Lysates were collected by removing cell debris through centrifugation at 13,200 rpm for 10 minutes at 4° C. […] The gels were images using a Typhoon imager (GE Healthcare Life Sciences) using excitation and emission wavelengths of 650 nm and 670 nm.

## CN[C@@H]1C[C@H]2O[C@@](C)([C@@H]1OC)n1c3ccccc3c3c4c(c5c6ccccc6n2c5c31)C(=O)NC4 [staurosporine, reference compound]
HeLa cells [1]
  effect of kinase inhibitor pre-treatment on in cellulo biotinylation with APB: reduced biotinylation
HeLa cells [2]
  effect of kinase inhibitor pretreatment on DC-assisted in cellulo biotinylation: reduced biotinylation
